Assay results taken from paper PMC9664666.
These are yes or no findings as the source states them, for the method shown. Binding seen in cells or lysates may run through a third protein. Some results given as binding are weak or reduced against the parent protein; the word gives no strength.

Chains of the proteins cited; added tags and fusions are not shown.
UniProt Q13257: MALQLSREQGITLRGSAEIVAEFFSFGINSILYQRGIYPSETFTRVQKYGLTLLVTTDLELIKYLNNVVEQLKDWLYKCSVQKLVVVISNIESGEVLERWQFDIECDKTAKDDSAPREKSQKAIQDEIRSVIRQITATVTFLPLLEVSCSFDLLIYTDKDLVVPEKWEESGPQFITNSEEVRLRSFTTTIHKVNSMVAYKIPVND

Molecular target: T1, Shugoshin-like protein 2 (SGOL2) (human (endogenous in HCC cells SK-HEP-1 and HEP3B)) (UniProt Q562F6)
T1 sequence: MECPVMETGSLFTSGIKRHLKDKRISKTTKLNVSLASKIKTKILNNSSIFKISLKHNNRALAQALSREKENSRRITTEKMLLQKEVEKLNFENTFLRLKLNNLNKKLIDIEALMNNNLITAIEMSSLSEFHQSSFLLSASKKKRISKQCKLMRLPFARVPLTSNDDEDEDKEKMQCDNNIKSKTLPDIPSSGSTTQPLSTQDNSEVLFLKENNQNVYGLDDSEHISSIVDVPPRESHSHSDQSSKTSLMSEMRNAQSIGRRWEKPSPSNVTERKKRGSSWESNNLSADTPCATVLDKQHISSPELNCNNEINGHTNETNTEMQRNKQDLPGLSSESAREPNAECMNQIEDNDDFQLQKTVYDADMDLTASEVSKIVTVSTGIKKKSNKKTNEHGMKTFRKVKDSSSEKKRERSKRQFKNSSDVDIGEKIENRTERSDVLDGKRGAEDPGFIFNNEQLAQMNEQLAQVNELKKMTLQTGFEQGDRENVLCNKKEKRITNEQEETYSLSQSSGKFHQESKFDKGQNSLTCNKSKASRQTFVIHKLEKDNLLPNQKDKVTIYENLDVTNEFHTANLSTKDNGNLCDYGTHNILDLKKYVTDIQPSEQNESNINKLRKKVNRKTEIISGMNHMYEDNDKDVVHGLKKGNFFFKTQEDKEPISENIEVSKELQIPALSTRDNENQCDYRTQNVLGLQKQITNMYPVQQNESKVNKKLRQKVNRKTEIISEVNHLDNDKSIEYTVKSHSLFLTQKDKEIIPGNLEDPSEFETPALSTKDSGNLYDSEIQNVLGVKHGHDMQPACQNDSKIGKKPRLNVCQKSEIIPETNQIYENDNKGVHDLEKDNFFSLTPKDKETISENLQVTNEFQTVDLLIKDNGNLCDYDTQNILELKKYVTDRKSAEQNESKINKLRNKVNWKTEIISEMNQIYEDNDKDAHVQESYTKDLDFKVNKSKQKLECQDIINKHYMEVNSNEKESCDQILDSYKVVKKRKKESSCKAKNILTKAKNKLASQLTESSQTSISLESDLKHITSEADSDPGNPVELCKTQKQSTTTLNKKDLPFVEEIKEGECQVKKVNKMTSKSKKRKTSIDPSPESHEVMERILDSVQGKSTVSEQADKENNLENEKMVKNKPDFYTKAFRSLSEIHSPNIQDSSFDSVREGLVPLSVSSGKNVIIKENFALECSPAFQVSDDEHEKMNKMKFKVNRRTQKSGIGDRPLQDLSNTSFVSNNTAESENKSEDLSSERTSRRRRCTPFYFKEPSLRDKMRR
Experiment: co-IP; endogenous proteins in HCC cells; IP/COIP kit (Absin); SGOL2 antibody (Bethyl A301-262A) and MAD2 antibody (Bethyl A300-301A) for WB/Co-IP; normal rabbit IgG listed

In the case of “mitotic arrest deficient 2 like 1 (MAD2) (from UniProt Q13257 1-205)”, the binding was “binds”.
